According to PMC9607104 (Molecules, 2022):
Strings that start with PEPTIDE1 are HELM notation: dots part the residues, brackets hold end groups and non-standard residues.

Assay: general procedure: Fmoc solid-phase peptide synthesis; Rink Amide-ChemMatrix resin (Biotage), loading 0.52 mmol g^-1
Settings: whole synthesis, 210 nm

## PEPTIDE1{[ac].[dK].[dL].[dT].W.Q.E.L.Y.Q.L.K.Y.K.G.I.[am]}$$$$V2.0
  final HPLC purity: >95%
